Values of other authors, collected in US10662445B2, “Process for the production of bio-butanol by fermentation of glycosidic waste matter” (priority 2018, dated 2020).
Like-named read-outs stand apart in the source and are kept apart here. Some entries share one result that the patent states for a list of compounds. At least one compound was matched to its structure with a doubt left.

Test system: solventogenic Clostridia (ABE fermentation)
Settings: cited from earlier work; for Concentration converted to other less toxic acids by specific microorganism / Concentration that enhanced production and productivity: ABE production; for Concentration at which production and productivity dropped: FIG. 1, ABE fermentation

Row | SMILES | Inhibitory concentration (ABE fermentation) [g/L] | Concentration converted to other less toxic acids by specific microorganism | Concentration that enhanced production and productivity | Concentration that enhanced production and productivity (listed as 5-HMF) [g/L] | Concentration at which production and productivity dropped [g/L] | Concentration deleterious for ABE fermentation | Concentration range in aqueous media proven to enhance bio-butanol production and productivity [g/L] | Concentration deleterious for ABE fermentation (listed as 5-HMF) [g/L]
1 | O=Cc1ccc(CO)o1 [HMF, hydroxymethyl furfural] | >2 to 3 | 2. (≈2-3 g/L) converted to other less | 1. (<0.5 g/L) enhanced production | < 0.5 | 2 to 3 | 3. (>3 g/L) was deleterious for ABE | 0.5 to 2.0 | > 3
2 | O=Cc1ccco1 [Furfural, furfural] | – | 2. (≈2-3 g/L) converted to other less | – | – | 2 to 3 | – | 0.5 to 2.0 | –
